In doi:10.1101/2022.10.20.512913:
Where two headings read alike, the source gives them in different places. These are yes or no findings as the source states them, for the method shown. In cells and extracts the contact can be indirect. For some of these results: Binding can be weak; no strength is given. For some of these results: Sequences can lack the tags named with a protein.

The chains behind the UniProt entries cited, without tags or fusion partners.
UniProt Q8VZQ4: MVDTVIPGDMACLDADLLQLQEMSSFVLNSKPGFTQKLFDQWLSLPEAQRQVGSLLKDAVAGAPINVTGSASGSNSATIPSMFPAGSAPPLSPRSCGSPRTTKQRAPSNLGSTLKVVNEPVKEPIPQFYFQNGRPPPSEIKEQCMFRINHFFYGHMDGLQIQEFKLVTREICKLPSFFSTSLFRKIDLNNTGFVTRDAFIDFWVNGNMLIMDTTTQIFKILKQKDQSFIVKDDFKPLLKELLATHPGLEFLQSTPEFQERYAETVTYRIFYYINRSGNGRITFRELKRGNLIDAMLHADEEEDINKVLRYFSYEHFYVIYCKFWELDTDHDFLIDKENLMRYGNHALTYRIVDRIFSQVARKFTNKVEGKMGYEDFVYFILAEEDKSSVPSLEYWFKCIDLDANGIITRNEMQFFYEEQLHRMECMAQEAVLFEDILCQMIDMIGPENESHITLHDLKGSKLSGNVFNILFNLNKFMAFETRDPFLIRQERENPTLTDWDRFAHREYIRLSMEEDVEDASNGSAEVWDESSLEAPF

Tests used:
Experiment in all cases: co-IP
FLOT2-GFP (Arabidopsis) = biological target: T1, FLOT2-GFP (Arabidopsis) (UniProt Q4V3D6)
T1 sequence: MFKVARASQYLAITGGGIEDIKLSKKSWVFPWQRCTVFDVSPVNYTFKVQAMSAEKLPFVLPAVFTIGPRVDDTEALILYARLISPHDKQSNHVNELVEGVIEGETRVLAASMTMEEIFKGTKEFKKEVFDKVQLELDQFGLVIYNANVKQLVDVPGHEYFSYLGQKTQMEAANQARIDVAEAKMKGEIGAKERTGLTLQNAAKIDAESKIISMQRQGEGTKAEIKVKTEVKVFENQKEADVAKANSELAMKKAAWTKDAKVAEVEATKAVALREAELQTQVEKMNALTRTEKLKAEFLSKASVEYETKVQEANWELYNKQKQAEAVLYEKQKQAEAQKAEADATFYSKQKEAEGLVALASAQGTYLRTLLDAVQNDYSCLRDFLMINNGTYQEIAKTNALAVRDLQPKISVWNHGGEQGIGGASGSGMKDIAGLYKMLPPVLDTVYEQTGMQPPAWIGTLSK

GFP-PIP2;7 (Arabidopsis) [1] = biological target: T2, GFP-PIP2;7 (Arabidopsis) (UniProt P93004)
T2 sequence: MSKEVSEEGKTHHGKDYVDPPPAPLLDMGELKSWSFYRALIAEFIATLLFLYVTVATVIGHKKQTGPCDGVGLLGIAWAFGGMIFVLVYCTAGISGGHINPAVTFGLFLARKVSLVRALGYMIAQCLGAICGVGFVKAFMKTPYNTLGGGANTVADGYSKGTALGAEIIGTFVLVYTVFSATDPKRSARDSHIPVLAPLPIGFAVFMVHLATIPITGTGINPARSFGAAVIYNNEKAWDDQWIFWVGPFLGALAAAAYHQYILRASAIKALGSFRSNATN

GFP-PIP2;7 (Arabidopsis) [2] = biological target: T2, GFP-PIP2;7 (Arabidopsis); remark: listed apart in the source
[3] = biological target: PP2A-B’’γ-YFP (Arabidopsis) (UniProt Q8VZQ4)

binding (FLOT2-GFP (Arabidopsis)): no binding
binding (GFP-PIP2;7 (Arabidopsis) [1]): binds
binding (GFP-PIP2;7 (Arabidopsis) [2]): binds
binding [3]: binds
Substance: CWLP-HA (from UniProt Q9LIE9)
